Data from the supplement of paper PMC3334620.
The full ranking holds about 33,000 sequences; the median of “E-score (-0.5 to 0.5)” is about -0.0059, and the highest 2% start at about 0.26. The list shows a part of the results.

target: T1, Cin5 (UniProt P40917); test: PBM E-score (8-mer binding enrichment) (E-score (-0.5 to 0.5)); higher = stronger / more preferred TF binding; conditions: protein concentration: 100 nM; construct: GST-full length
T1 sequence: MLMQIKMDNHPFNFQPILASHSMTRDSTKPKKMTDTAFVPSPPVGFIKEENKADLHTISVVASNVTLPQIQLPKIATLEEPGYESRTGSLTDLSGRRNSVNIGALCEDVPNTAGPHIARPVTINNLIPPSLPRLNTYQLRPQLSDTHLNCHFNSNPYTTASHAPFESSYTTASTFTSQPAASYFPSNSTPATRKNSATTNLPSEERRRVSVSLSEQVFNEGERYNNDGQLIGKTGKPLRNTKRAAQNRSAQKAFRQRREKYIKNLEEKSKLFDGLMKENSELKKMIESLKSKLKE
Method in brief: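 Detection of bound protein used fluorescent anti-GST, with scans normalised by masliner. The proteins were GST-tagged yeast transcription factors applied at about 100-200 nM to universal all-10-mer Agilent arrays made double-stranded by primer extension. Each ungapped eight-base word, pooled with its reverse complement, was scored with an E-score from the Universal PBM Analysis Suite.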

Sequence | PBM E-score
ATTTAATG | 0.229
ATGTAGCC | -0.12
ACATTGGA | -0.0838
ACGAAGCT | 0.00769
AGAGCCGC | -0.0103
CCGCAACA | 0.0621
CGCATCAG | 0.0136
CCGTTCTA | 0.089
CGCGCCAA | 0.0569
TGAAGGAA | 0.12
ATATCACC | 0.217
ACGGGTCG | 0.0221
CTAGTGGA | -0.125
AATGCTAC | 0.171
CGCATTCA | 0.174
GTCTCTTA | 0.133
AAGCAACG | 0.138
AACCTAGA | -0.0229
GAACCGCA | 0.122
ATGACTGA | 0.0358
ATATACGA | 0.0395
ATTCGTCC | 0.254
CGCAGCGC | -0.138
AAAGTGAG | 0.134
ATAGCGAC | -0.1

Sequence | PBM E-score
ACATGTCT | 0.0297
AGAGGGCA | -0.272
GCGCCCAC | -0.0946
ACGAAACT | 0.0491
GTCCGTAA | -0.0824
ATCTAGTA | 0.127
CCGGAGAA | -0.0357
CGTGTGAC | -0.154
GCCATCCA | -0.0952
ATCAGGGA | -0.109
AAGTTGGC | -0.0247
ATGCTATG | 0.14
GCTGTTCC | -0.0338
GAGCTTAA | -0.104
AGGAGTAA | 0.0726
CTTCCACC | -0.214
CCGGTACG | -0.253
GCACTCGA | 0.0449
CCTTGGCG | -0.283
CGAATAGA | -0.00721
ACCAGTTC | -0.0385
CATAAGCG | 0.267
ACTTATTA | 0.173
ACTCATTC | 0.202
GTATATTA | 0.219

A different layout for some results above:
Sequence,PBM E-score
ACATGTCT,0.0297
ATCTAGTA,0.127
AAGTTGGC,-0.0247

Next part.

Sequence | PBM E-score
AGGTCTAC | -0.144
CGCTATCC | -0.0163
TCTCCAAA | -0.0839
AAAGGCTT | -0.132
GATTCTTA | 0.213
AATGTTGA | -0.014
TGATAGAA | 0.0353
AAGTGCTG | -0.0829
ACTCTAAG | -0.0993
CGATTGCA | 0.15
ACTAGTCG | -0.0452
CCCCTTAG | -0.275
CTGTCCTA | -0.141
AACAACCC | 0.0808
GATTCGTA | 0.15
CATCGAAG | 0.0755
AATTCTGG | 0.0591
ATTCGTGC | 0.17
ACAAATAC | 0.252
CGTCTCCA | 0.0161
ATCGGGAC | -0.247
AAGGGATC | -0.0209
ATCCCGTA | 0.165
CGGAGATA | 0.168
AGTCCAGA | -0.144

Sequence | PBM E-score
AGGAGCTA | -0.227
CAGCACCG | -0.136
CTGAAGAC | -0.233
CCGAGTAA | 0.0357
GGTCACAC | -0.305
ACGACTTA | -0.0557
GACTGCAC | -0.0947
TACTACGA | 0.139
TAACCCGA | -0.0693
CCAGACAA | -0.141
TAGGGTGA | 0.107
TCCTCTAA | -0.0789
CTACCCTA | -0.101
GGCTCGTA | 0.117
GGCATGCA | -0.096
GTTTACAA | -0.00663
CTCATTAC | 0.19
TCCGCCAA | -0.0134
ACTTGCTG | 0.0391
ACGGCCTC | -0.117
ATTATACG | 0.257
ATGGACCC | -0.0981
AACCCTAC | -0.0781
AGGCCAAG | -0.214
CATGTGTA | 0.0361

Sequence | PBM E-score
AGGAGCAC | -0.0874
CGAATGCA | 0.0628
AACAGGGA | -0.00767
CAGAGTGC | -0.106
AGCCTCTA | -0.292
CCCACCCC | 0.24
ACATCTTG | 0.0223
AGATATTC | 0.0754
AATAAACG | 0.098
GATAATAC | 0.235
ACGCAGGA | -0.0654
ATACATAT | 0.318
AATGTAAG | 0.319
AAGAGGGG | -0.161
CCGCGTCG | 0.00926
GCTTTAAA | -0.08
ACGCCCTG | -0.112
CATGCGCA | 0.0113
GCGCGGCC | -0.0214
AATGGGCT | -0.0711
TGGGGTAA | 0.0776
AACCGGAA | 0.202
CCGACGCA | -0.242
ACCCAATA | 0.0873
AGCGCTGC | -0.115

Sequence | PBM E-score
ATAACATG | 0.0972
CAACACAA | 0.139
GAACATGC | -0.0608
ATCAGCAC | 0.0734
AATTCAAT | 0.0563
CAATCGCC | -0.0396
AGCGATCG | 0.22
AGTCGAAC | 0.082
ACGAAATC | 0.214
GGGCGTCA | -0.00967
GCCGCCAA | -0.123
GATTTCAC | 0.197
CGCAAATA | 0.0628
CCCTCACC | -0.101
AGAATGCA | 0.179
CGGCATGC | 0.127
GTTAGCTA | 0.0147
GTTAAGCA | 0.114
CCGGAATA | 0.0845
ATCAAATG | 0.0633
GCAGACAC | 0.0505
CGTCGTGC | 0.0808
AGGTATAA | 0.114
GTGGTTAA | 0.176
GCGGGGAC | -0.0316

Sequence | PBM E-score
AATGTAAA | 0.19
ACTAGGGG | -0.144
TGCCTACA | -0.0179
GAGCACGA | 0.0847
CGCGCTAG | -0.0212
ACTAATCG | 0.355
GATGATCA | 0.0191
GCCATACA | 0.114
AAGTGTCG | 0.0696
CGTCGGTC | -0.00791
ATCCACAC | 0.0312
TACTTCCA | 0.169
CCCCTTGA | 0.0353
TAGGTTCA | 0.0773
AGCTAGAT | 0.0636
GGCCGTAA | 0.0269
ATAGGAGA | -0.151
GGGCTGTA | -0.171
TACCGGTA | 0.0137
AATGCGGA | 0.0808
AGACGATA | -0.0186
CTGAGTCA | 0.077
AACCAAGT | 0.173
ATGAGAGA | 0.135
ATGTGACC | -0.0859

Sequence | PBM E-score
CCATATGG | 0.12
AAGCAGGA | 0.0254
GGCCTTAA | -0.0219
TCTGCCAA | -0.216
GGTCCCAA | -0.119
CGACTGGA | -0.167
CCCCCAGC | -0.399
CATACCGA | -0.0899
AGACCTGC | -0.218
AGTCTGCC | -0.287
AACCGAAA | 0.121
AAGACTTA | -0.205
AATCATCT | -0.00464
CCTGGTCA | -0.141
CACGCATG | -0.206
AGATCGTG | 0.0401
AAGGCCCA | -0.143
TTCTGCAA | 0.049
ATACGCAT | 0.184
ATATGCTC | 0.101
CACGGCGG | -0.114
CTATACGA | -0.0708
ACCTATCA | -0.0231
ACCTAGTA | -0.146
AAGATAAG | 0.0623

A second format for part of the listing above.
Sequence	PBM E-score
AATGTAAA	0.19
ACTAGGGG	-0.144
TGCCTACA	-0.0179
GAGCACGA	0.0847
CGCGCTAG	-0.0212
ACTAATCG	0.355
GATGATCA	0.0191
GCCATACA	0.114
AAGTGTCG	0.0696
CGTCGGTC	-0.00791
ATCCACAC	0.0312
TACTTCCA	0.169
CCCCTTGA	0.0353
TAGGTTCA	0.0773
AGCTAGAT	0.0636
GGCCGTAA	0.0269
ATAGGAGA	-0.151
GGGCTGTA	-0.171
TACCGGTA	0.0137
AATGCGGA	0.0808
AGACGATA	-0.0186
CTGAGTCA	0.077
AACCAAGT	0.173
ATGAGAGA	0.135
ATGTGACC	-0.0859
CCATATGG	0.12
AAGCAGGA	0.0254
GGCCTTAA	-0.0219
TCTGCCAA	-0.216
GGTCCCAA	-0.119
CGACTGGA	-0.167
CCCCCAGC	-0.399
CATACCGA	-0.0899
AGACCTGC	-0.218
AGTCTGCC	-0.287
AACCGAAA	0.121
AAGACTTA	-0.205
AATCATCT	-0.00464
CCTGGTCA	-0.141
CACGCATG	-0.206
AGATCGTG	0.0401
AAGGCCCA	-0.143
TTCTGCAA	0.049
ATACGCAT	0.184
ATATGCTC	0.101
CACGGCGG	-0.114
CTATACGA	-0.0708
ACCTATCA	-0.0231
ACCTAGTA	-0.146
AAGATAAG	0.0623

(next part)

Sequence | PBM E-score
ATCACTGC | 0.0947
CGCCTCCA | -0.0747
CCTCCCGA | -0.3
CTACCCGC | -0.0292
GAACGATC | -0.0283
TCACTGGA | -0.104
GTCTGTAA | 0.0157
GGATGGAC | -0.0178
CATTCTGA | 0.0376
ACAGTTCA | 0.128
CACCCTAA | 0.0583
GCGCTCAA | -0.158
ATGGTAAG | 0.0174
GAAATTCC | 0.0113
ACCTACAA | 0.128
CTCGACTC | -0.0107
GCGGACGC | -0.205
CCCATTGC | 0.0275
ACAGGTAC | -0.158
